Results as given in paper PMC12422955.
These are yes or no findings as the source states them, for the method shown. Binding seen in cells or lysates may run through a third protein. These calls come from enrichment with a bait or labelling near it, and not all partners need be listed.

Protein sequences, listed by entry. Tags and fused reporters are not part of them. Residues count along the entry.
UniProt P19490, residues 19-907: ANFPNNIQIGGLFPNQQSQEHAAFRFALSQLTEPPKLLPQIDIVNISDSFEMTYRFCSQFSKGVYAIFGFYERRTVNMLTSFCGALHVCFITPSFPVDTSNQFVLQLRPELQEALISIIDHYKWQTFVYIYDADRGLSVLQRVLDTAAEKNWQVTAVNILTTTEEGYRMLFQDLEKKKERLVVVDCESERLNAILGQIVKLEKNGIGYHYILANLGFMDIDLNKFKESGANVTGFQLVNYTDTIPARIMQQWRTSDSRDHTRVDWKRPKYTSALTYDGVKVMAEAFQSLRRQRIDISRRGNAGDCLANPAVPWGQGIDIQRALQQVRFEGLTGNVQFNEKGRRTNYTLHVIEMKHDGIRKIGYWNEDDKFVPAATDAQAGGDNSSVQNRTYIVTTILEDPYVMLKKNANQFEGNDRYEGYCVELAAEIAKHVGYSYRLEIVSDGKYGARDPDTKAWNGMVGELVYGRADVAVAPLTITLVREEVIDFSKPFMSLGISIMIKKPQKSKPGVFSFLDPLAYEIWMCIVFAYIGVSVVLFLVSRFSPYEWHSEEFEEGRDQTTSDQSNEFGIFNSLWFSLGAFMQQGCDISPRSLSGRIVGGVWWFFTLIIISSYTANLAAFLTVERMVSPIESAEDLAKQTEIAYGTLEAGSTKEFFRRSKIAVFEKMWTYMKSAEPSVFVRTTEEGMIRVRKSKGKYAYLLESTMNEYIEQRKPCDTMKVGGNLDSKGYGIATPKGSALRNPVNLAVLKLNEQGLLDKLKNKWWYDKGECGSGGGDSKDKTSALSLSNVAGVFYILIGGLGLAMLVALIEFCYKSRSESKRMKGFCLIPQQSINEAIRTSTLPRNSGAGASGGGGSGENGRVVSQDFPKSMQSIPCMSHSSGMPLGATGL
UniProt Q71RJ2: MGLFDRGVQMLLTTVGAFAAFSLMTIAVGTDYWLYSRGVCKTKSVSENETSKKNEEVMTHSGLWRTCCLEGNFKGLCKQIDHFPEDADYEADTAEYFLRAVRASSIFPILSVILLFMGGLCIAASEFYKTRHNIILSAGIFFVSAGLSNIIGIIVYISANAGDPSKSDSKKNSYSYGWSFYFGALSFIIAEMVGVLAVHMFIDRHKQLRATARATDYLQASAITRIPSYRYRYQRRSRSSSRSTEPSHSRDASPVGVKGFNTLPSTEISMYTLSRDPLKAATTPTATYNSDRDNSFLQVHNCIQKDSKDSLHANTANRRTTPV

Biological target: GluA1 subunit of native AMPA receptors from rat cerebellum (rat (endogenous in cerebellum)) (UniProt P19490)
Experiment: affinity purification with mass spectrometry; rat cerebellum in 2% digitonin with (R,R)-2b and MPQX; GluA1 captured by 11B8 scFv–GFP–3C–Twin-Strep on Strep-Tactin XT (GluA2-containing receptors kept on the resin by 15F1 Fab), 3C release, FSEC; western blot and mass spectrometry

binding: binds
Substance: TARP γ2 (from UniProt Q71RJ2 1-323)
